# Patent US20210040181A1 (Bristol-Myers Squibb, published 2021)
# Results are given in words; binding and its absence hold for the method and conditions named. Some binding calls cover weakened binding; strength is not graded here.
# B1: 679B01 (designed binder)
# chain: VSDVPRDLEVVAATPTSLLISWLLLGAPCRYYRITYGETGGNSPVQEFTVPWMGLTATISGLKPGVDYTITVYAVTSERAPCVKVWRCPISINYRT
# notes: 10Fn3-based clone expressed in E. coli as His6 tagged protein; not shown: His6 tag
# B2: 679F03 (designed binder)
# chain: VSDVPRDLEVVAATPTSLLISWYHYYSGSQRYYRITYGETGGNSPVQEFTVPHEVYTATISGLKPGVDYTITVYAVTDYAYKEYEEYPISINYRT
# notes: as for B1
# B3: 679F09 (designed binder)
# chain: VSDVPRDLEVVAATPTSLLISWQVPRPMYQRYYRITYGETGGNSPVQEFTVPGGVRTATISGLKPGVDYTITVYAVTDYMHSEYRQYPISINYRT
# notes: 10Fn3-based clone expressed in E. coli as His6 tagged protein; also called clone 679F09; not shown: His6 tag
# B4: 867B04 (designed binder, not shown: small tags and cut ends)
# chain: VSDVPRDLEVVAATPTSLLISWYSRYQSYRYYRITYGETGGNSPVQEFTVPHASNTATISGLKPGVDYTITVYAVTVDYTAVQVSYPISINYRT
# B5: 867B05 (designed binder, not shown: small tags and cut ends)
# chain: B4 chain
# Biological target: EGFR-Fc (R&D Systems), ectodomain of human EGFR as a Fc fusion (human) (UniProt P00533)
# Experiment: direct binding ELISA, single point
row,Binder,binding
1,B1,binds
2,B2,binds
3,B3,binds
4,B4,binds
5,B5,binds
